These are yes or no findings as the source states them, for the method shown. Binding calls can cover weak binding; strength is not graded here.
biological target: HLA-A*02:01 (human); experiment: UV-ligand exchange + anti-b2m ELISA; peptide exchange yield grade (+ >=10%, ++ >=20%, +++ >=50%, ++++ >=75%)

binding, binds:
ALIKQLFEA [… (SEQ ID NO: 1)]
RMYNKIFAI [… (SEQ ID NO: 10)]
ILLTIKDDTIYL [… (SEQ ID NO: 104)]
YALDLSTFL [… (SEQ ID NO: 105)]
SLISEKILL [… (SEQ ID NO: 106)]
ALLGGGPYML [… (SEQ ID NO: 107)]
SLAELVPGVGGI [… (SEQ ID NO: 108)]
ALDGDQMEL [… (SEQ ID NO: 109)]
LLGELPRLLLL [… (SEQ ID NO: 110)]
KLGQVLIYL [… (SEQ ID NO: 112)]
ILYDLQQNL [… (SEQ ID NO: 113)]
TAVGHALVL [… (SEQ ID NO: 114)]
YLFEKTFNM [… (SEQ ID NO: 11)]
SLFDVSHML [… (SEQ ID NO: 115)]
LVYQFVHPI [… (SEQ ID NO: 116)]
TLQPVDNSTISL [… (SEQ ID NO: 117)]
LLADLKTMV [… (SEQ ID NO: 118)]
ILYQTVTGL [… (SEQ ID NO: 119)]
VLYEGVDEV [… (SEQ ID NO: 120)]
SLAPNIISQL [… (SEQ ID NO: 121)]
SLMGMVLKL [… (SEQ ID NO: 122)]
KTLERSYLL [… (SEQ ID NO: 123)]
RVLPPSALQSV [… (SEQ ID NO: 124)]
ALVQGILERV [… (SEQ ID NO: 12)]
KLGDFGLLVEL [… (SEQ ID NO: 125)]
RLAELTVDEFLA [… (SEQ ID NO: 127)]
MLDDRAYLV [… (SEQ ID NO: 128)]
VLIDVLKEL [… (SEQ ID NO: 129)]
GLGGSQLIDTHL [… (SEQ ID NO: 130)]
KLLDVVHPA [… (SEQ ID NO: 131)]
ALLNAILHSA [… (SEQ ID NO: 132)]
RTFEKIEEV [… (SEQ ID NO: 133)]
GVAGGSILKGV [… (SEQ ID NO: 134)]
KLQEEIPVL [… (SEQ ID NO: 135)]
KLFDIFSQQV [… (SEQ ID NO: 136)]
QLTEIKPLL [… (SEQ ID NO: 137)]
KQFEGTVEI [… (SEQ ID NO: 138)]
VLLNEILEQV [… (SEQ ID NO: 139)]
LLNEILEQV [… (SEQ ID NO: 140)]
AVIEHLERL [… (SEQ ID NO: 141)]
SLVQRVETI [… (SEQ ID NO: 142)]
KLSDVWKEL [… (SEQ ID NO: 143)]
LLNDRIWLA [… (SEQ ID NO: 144)]
FLDKPEDVLL [… (SEQ ID NO: 14)]
LLLEVVKQV [… (SEQ ID NO: 145)]
ALSDETWGL [… (SEQ ID NO: 146)]
TLTELRAFL [… (SEQ ID NO: 147)]
RLLENMTEVV [… (SEQ ID NO: 148)]
YQFDKVGILTL [… (SEQ ID NO: 149)]
RLADLEALKV [… (SEQ ID NO: 150)]
SAQGSDVSLTACKV [… (SEQ ID NO: 151)]
KLLAVIHEL [… (SEQ ID NO: 152)]
ILFSEDSTKLFV [… (SEQ ID NO: 153)]
KLPSETIFVGC [… (SEQ ID NO: 154)]
LQLDKEFQL [… (SEQ ID NO: 15)]

— patent US20230203114A1
